Laboratory results taken from publication PMC9026565.
Results are given in words; binding and its absence hold for the method and conditions named. Some results given as binding are weak or reduced against the parent protein; the word gives no strength.

Protein sequences, listed by entry. Tags and fused reporters are not part of them.
UniProt P55087: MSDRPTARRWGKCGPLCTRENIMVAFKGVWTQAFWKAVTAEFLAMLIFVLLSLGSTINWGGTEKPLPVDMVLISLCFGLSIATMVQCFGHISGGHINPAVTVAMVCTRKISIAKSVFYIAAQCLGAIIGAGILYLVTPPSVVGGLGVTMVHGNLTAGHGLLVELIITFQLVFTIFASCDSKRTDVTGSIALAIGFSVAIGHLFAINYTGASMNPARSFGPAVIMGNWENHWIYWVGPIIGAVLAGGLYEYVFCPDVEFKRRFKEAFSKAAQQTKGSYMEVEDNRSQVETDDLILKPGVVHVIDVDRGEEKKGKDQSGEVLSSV

Experiments:
[1] = target: human aquaporin 4 (human) (UniProt P55087); test: SEC; Superdex 200 Increase 10/300 GL, flow 0.4 mL/min, SEC-buffer (20 mM Tris pH 8.0, 300 mM NaCl, 1% OG), 4°C; 500 μL of 10 mg/mL IMAC sample; tetramer assigned from the elution volume; both purified
[2] = target: human aquaporin 4 (human) (UniProt P55087); test: SDS-PAGE (SDS-resistant oligomer ladder); NuPAGE 4-12% Bis-Tris gel of the main SEC elution peak of purified AQP4; samples not boiled; both purified

human aquaporin 4 (from UniProt P55087 1-323)
binding [1]: binds
binding [2]: binds
